Experimental data published in PMC5633884.
These are yes or no findings as the source states them, for the method shown. Binding seen in cells or lysates may run through a third protein. Some results given as binding are weak or reduced against the parent protein; the word gives no strength.

Amino acid sequences for entries named in this document (tags omitted).
UniProt Q8IX03: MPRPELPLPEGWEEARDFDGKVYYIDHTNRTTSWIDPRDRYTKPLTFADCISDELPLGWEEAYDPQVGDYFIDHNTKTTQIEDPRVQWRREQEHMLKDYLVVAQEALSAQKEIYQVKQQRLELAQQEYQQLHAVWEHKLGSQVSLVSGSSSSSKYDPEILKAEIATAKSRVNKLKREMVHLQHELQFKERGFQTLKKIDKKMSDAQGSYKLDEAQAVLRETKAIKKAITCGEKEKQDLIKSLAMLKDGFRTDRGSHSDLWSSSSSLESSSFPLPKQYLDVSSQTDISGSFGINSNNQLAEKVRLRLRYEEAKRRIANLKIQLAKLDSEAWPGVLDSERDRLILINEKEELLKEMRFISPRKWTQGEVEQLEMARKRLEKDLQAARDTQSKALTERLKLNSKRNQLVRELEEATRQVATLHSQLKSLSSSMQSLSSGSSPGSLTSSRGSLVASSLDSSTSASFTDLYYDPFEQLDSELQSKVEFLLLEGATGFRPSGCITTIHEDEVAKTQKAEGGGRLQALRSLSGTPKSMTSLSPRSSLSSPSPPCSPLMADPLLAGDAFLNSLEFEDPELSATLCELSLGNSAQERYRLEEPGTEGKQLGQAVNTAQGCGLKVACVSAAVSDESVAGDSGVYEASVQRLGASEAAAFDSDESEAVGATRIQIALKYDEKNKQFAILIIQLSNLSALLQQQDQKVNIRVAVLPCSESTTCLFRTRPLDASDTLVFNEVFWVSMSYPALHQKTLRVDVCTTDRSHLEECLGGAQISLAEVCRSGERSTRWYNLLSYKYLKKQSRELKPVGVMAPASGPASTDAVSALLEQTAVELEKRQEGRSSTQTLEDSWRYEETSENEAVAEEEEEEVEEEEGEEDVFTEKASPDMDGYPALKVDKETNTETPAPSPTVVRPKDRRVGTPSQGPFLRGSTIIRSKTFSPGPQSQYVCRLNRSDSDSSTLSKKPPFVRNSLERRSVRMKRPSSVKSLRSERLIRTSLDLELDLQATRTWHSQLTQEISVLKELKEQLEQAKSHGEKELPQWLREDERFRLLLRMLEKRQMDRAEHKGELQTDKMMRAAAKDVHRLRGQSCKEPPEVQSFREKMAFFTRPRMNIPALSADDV
UniProt Q8TEW0: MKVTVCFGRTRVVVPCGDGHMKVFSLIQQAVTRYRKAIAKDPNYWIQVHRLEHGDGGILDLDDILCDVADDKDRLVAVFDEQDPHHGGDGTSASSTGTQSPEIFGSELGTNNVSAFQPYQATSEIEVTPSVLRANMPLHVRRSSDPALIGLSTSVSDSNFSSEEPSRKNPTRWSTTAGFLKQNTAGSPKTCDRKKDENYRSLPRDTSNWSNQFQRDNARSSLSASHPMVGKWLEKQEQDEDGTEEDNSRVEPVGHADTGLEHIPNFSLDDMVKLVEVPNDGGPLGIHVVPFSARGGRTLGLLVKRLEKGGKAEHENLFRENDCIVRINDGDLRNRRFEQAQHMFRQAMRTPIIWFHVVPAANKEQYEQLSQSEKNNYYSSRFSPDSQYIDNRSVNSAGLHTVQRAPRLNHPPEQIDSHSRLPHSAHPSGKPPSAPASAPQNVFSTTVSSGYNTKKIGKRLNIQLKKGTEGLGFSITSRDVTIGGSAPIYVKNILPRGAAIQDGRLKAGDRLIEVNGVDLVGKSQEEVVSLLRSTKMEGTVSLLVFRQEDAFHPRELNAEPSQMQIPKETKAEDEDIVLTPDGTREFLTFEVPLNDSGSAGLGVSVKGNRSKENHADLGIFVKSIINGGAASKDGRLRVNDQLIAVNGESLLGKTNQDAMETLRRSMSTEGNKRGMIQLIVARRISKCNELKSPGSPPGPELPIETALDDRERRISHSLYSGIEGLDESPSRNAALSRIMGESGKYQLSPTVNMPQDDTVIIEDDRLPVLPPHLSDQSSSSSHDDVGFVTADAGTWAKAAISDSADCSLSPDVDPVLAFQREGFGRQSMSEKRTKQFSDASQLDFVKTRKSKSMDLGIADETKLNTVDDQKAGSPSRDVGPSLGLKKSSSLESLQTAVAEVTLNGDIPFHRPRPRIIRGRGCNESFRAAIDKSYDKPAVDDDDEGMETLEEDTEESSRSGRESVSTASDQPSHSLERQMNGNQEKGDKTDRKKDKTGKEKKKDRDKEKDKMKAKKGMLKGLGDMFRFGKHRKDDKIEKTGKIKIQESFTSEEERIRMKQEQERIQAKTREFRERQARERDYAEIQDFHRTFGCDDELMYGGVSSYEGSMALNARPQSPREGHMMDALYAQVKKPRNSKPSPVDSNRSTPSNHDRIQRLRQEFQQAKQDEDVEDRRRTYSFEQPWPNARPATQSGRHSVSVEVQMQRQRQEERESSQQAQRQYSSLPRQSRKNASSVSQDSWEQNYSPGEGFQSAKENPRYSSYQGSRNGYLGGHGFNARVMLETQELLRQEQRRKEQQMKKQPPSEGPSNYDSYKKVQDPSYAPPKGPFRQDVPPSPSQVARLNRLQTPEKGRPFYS
UniProt P35240: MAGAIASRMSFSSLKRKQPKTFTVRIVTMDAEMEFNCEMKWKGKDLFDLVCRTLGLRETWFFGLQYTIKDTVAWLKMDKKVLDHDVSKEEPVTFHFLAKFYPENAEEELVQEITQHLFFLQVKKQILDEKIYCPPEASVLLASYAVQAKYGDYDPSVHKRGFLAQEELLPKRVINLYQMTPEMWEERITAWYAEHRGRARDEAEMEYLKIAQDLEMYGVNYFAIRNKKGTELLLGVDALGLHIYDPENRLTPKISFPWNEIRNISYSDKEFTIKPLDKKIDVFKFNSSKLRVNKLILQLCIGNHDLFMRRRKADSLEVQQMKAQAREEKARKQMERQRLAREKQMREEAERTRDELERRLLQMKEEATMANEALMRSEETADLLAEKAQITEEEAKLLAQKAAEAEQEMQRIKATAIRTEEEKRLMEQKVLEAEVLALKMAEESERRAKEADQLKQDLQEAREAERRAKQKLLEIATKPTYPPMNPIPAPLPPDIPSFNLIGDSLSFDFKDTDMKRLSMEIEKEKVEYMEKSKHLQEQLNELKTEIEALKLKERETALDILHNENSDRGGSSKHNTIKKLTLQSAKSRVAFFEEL

Assays:
[1] = biological target: KIBRA (human (endogenous in PNT1B, PC3 and DU145)) (UniProt Q8IX03); assay: co-IP; endogenous proteins; PNT1B, PC3 and DU145 cells lysed with RIPA; 100 ug total protein with 5 ug specific antibody and 40 ul protein G-sepharose beads on ice overnight; washed three times with chilled PBS; western blot
[2] = biological target: KIBRA (human (endogenous in PNT1B, PC3 and DU145)) (UniProt Q8IX03); assay: co-IP; membranous and cytoplasmic protein extracts taken apart; PC3-con, PC3-shPar3 (stable Par3 knockdown) and PC3-Par3OE (Par3 overexpression) cells; western blot

| binding [1] | binding [2] | Substance |
| --- | --- | --- |
| binds | – | Par3 (from UniProt Q8TEW0 1-1356) |
| binds | binds | Merlin (from UniProt P35240 1-595) |
